The subject of one data set is biotinyl-Ile-oxazolone. Description: self-aminoacylation, catalytic enhancement (BIO) (fold over background); higher = more active; k-Seq, kA / k0A0; sequences stand for … in GGGAAUGGAUCCACAUCUACGAAUUC…UUCACUGCAGACUUGACGAAGCUG
Put shortly:
(§1)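 Mutagenized RNA pools with a 21-nt variable region (0.43 μM) reacted with each biotinyl-aminoacyl-oxazolone at 2–1250 μM. Reactions ran in 50 μL HEPES/NaCl/KCl/MgCl2/CaCl2 buffer with 5% acetonitrile, pH 6.9–7.0, for 90 minutes at room temperature. Streptavidin-captured RNA was quantified by triplicate qPCR and Illumina sequencing, and per-sequence fraction reacted was fit to a pseudo-first-order model with 1000 bootstraps. Catalytic enhancement is median kA divided by the uncatalyzed rate, the low-activity peak of a bimodal Gaussian fit.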

The next data set has as its system biotinyl-Met-oxazolone. Description: self-aminoacylation, catalytic enhancement (BMO) (fold over background); higher = more active; k-Seq, kA / k0A0; sequences stand for … in GGGAAUGGAUCCACAUCUACGAAUUC…UUCACUGCAGACUUGACGAAGCUG
An outline of the steps: as §1

In the next data set the test system is biotinyl-Val-oxazolone. Description: self-aminoacylation, catalytic enhancement (BVO) (fold over background); higher = more active; k-Seq, kA / k0A0; sequences stand for … in GGGAAUGGAUCCACAUCUACGAAUUC…UUCACUGCAGACUUGACGAAGCUG
Put shortly: as §1

Another data set concerns biotinyl-Leu-oxazolone. Description: self-aminoacylation, catalytic enhancement (BLO) (fold over background); higher = more active; k-Seq, kA / k0A0; sequences stand for … in GGGAAUGGAUCCACAUCUACGAAUUC…UUCACUGCAGACUUGACGAAGCUG
An outline of the steps:
as §1

The next data set concerns biotinyl-Trp-oxazolone. Description: self-aminoacylation, catalytic enhancement (BWO) (fold over background); higher = more active; k-Seq, kA / k0A0; sequences stand for … in GGGAAUGGAUCCACAUCUACGAAUUC…UUCACUGCAGACUUGACGAAGCUG
Put shortly: as §1

Another data set has as its system biotinyl-Phe-oxazolone. Description: self-aminoacylation, catalytic enhancement (BFO) (fold over background); higher = more active; k-Seq, kA / k0A0; sequences stand for … in GGGAAUGGAUCCACAUCUACGAAUUC…UUCACUGCAGACUUGACGAAGCUG
Put shortly:
as §1

This sample is rich in variants without activity.

With “CUACUUCAACCAACCGGUCUG [Fam1A.1 aminoacylation ribozyme variant]”, the self-aminoacylation amounted to 0.85 in the data set with biotinyl-Ile-oxazolone; 0.949 in the data set with biotinyl-Met-oxazolone; 0.802 with biotinyl-Val-oxazolone; 1.08 in the data set with biotinyl-Leu-oxazolone; 0.896 with biotinyl-Trp-oxazolone; 1.5 in the data set with biotinyl-Phe-oxazolone.

Take “AAGUUUGCAGAUAGUCGCAAG [Fam3.1 aminoacylation ribozyme variant]”: the self-aminoacylation in the data set on biotinyl-Ile-oxazolone amounted to 0.983; in the data set with biotinyl-Met-oxazolone, 0.85; with biotinyl-Val-oxazolone it was 0.736; in the data set on biotinyl-Leu-oxazolone, 0.866; in the data set on biotinyl-Trp-oxazolone, 1.08; with biotinyl-Phe-oxazolone, 0.81.

As for “CUACGCUUCAAGCAAUCGGUC [Fam1B.1 aminoacylation ribozyme variant]”, the self-aminoacylation in the data set with biotinyl-Ile-oxazolone was 0.964; in the data set on biotinyl-Met-oxazolone, 1.14; in the data set with biotinyl-Val-oxazolone, 1.06; in the data set with biotinyl-Leu-oxazolone, 1.86; in the data set on biotinyl-Trp-oxazolone, 29.9; in the data set on biotinyl-Phe-oxazolone, 59.9.

For “UUUCACGUAGGUCAUCGGGUG [Fam2.2 aminoacylation ribozyme variant]”, the self-aminoacylation is 2.89 with biotinyl-Ile-oxazolone; 4.24 in the data set with biotinyl-Met-oxazolone; 4.25 in the data set with biotinyl-Val-oxazolone; 3.88 with biotinyl-Leu-oxazolone; 4.06 in the data set with biotinyl-Trp-oxazolone; 32.2 in the data set on biotinyl-Phe-oxazolone.

As to “CUAUUUCCAACAAUCGGUCUG [Fam1A.1 aminoacylation ribozyme variant]”, the self-aminoacylation was determined as 0.893 with biotinyl-Ile-oxazolone; 0.821 in the data set on biotinyl-Met-oxazolone; 0.743 with biotinyl-Val-oxazolone; 0.865 in the data set with biotinyl-Leu-oxazolone; 0.621 in the data set with biotinyl-Trp-oxazolone; 0.709 in the data set on biotinyl-Phe-oxazolone.

Turning to “CCACACUUCUAGAAAUCGGUC [Fam1B.1 aminoacylation ribozyme variant]”, the self-aminoacylation is 0.667 in the data set with biotinyl-Ile-oxazolone; 0.788 with biotinyl-Met-oxazolone; 0.703 in the data set on biotinyl-Val-oxazolone; 0.763 in the data set on biotinyl-Leu-oxazolone; 0.809 with biotinyl-Trp-oxazolone; 0.507 in the data set on biotinyl-Phe-oxazolone.

Regarding “CCACUCUUCAAGCAAUCGGGC [Fam1B.1 aminoacylation ribozyme variant]”, the self-aminoacylation in the data set on biotinyl-Ile-oxazolone is 1.9; in the data set with biotinyl-Met-oxazolone it was 1.72; in the data set with biotinyl-Val-oxazolone, 1.87; in the data set with biotinyl-Leu-oxazolone, 2.21; in the data set on biotinyl-Trp-oxazolone, 1.69; with biotinyl-Phe-oxazolone it was 1.38.

Take “CCACUUCGAACAAUCGGUCUG [Fam1A.1 aminoacylation ribozyme variant]”: the self-aminoacylation in the data set with biotinyl-Ile-oxazolone was found to be 1.15; in the data set on biotinyl-Met-oxazolone it was 1.77; in the data set on biotinyl-Val-oxazolone it was 1.24; in the data set on biotinyl-Leu-oxazolone, 1.41; in the data set with biotinyl-Trp-oxazolone, 1.32; in the data set with biotinyl-Phe-oxazolone, 1.26.

On to “AUGACCCUGGUAAUCGAGUGA [Fam2.1 aminoacylation ribozyme variant]”, for which the self-aminoacylation was 2.7 in the data set on biotinyl-Ile-oxazolone; 5.08 in the data set with biotinyl-Met-oxazolone; 2.8 in the data set with biotinyl-Val-oxazolone; 5.39 with biotinyl-Leu-oxazolone; 6.37 in the data set on biotinyl-Trp-oxazolone; 23.9 with biotinyl-Phe-oxazolone.

For the sequence “CUACACCUCAAGCAAUCGGUC [Fam1B.1 aminoacylation ribozyme variant]”, the self-aminoacylation with biotinyl-Ile-oxazolone turned out to be 1.01; in the data set on biotinyl-Met-oxazolone, 0.869; with biotinyl-Val-oxazolone it was 0.976; in the data set on biotinyl-Leu-oxazolone it was 0.8; in the data set on biotinyl-Trp-oxazolone, 1.41; in the data set on biotinyl-Phe-oxazolone, 2.14.

Turning to “CCACACUUAAAGCAAUCGAUC [Fam1B.1 aminoacylation ribozyme variant]”, the self-aminoacylation in the data set on biotinyl-Ile-oxazolone was 0.769; with biotinyl-Met-oxazolone it was 0.475; with biotinyl-Val-oxazolone it was 0.829; with biotinyl-Leu-oxazolone it was 0.542; in the data set with biotinyl-Trp-oxazolone it was 0.572; in the data set with biotinyl-Phe-oxazolone, 0.984.

“CCACACUUCAAGCAAGCCGUC [Fam1B.1 aminoacylation ribozyme variant]”: the self-aminoacylation in the data set on biotinyl-Ile-oxazolone came out at 1.1; with biotinyl-Met-oxazolone it was 0.835; in the data set on biotinyl-Val-oxazolone, 0.963; with biotinyl-Leu-oxazolone, 0.921; in the data set on biotinyl-Trp-oxazolone, 0.664; in the data set on biotinyl-Phe-oxazolone, 0.837.

“AUUCAGCUACGUCAUCGGGUG [Fam2.2 aminoacylation ribozyme variant]”: the self-aminoacylation is 1.9 in the data set on biotinyl-Ile-oxazolone; 1.98 in the data set on biotinyl-Met-oxazolone; 2.02 with biotinyl-Val-oxazolone; 2.71 with biotinyl-Leu-oxazolone; 3.07 in the data set on biotinyl-Trp-oxazolone; 10.1 in the data set on biotinyl-Phe-oxazolone.

On to “AAGAUUGCUAAUAGUCGCACG [Fam3.1 aminoacylation ribozyme variant]”, for which the self-aminoacylation in the data set on biotinyl-Ile-oxazolone amounted to 1.18; in the data set on biotinyl-Met-oxazolone it was 1.65; with biotinyl-Val-oxazolone, 1.62; in the data set with biotinyl-Leu-oxazolone it was 1.36; in the data set on biotinyl-Trp-oxazolone, 1.97; in the data set on biotinyl-Phe-oxazolone it was 1.12.

As for “AAGUUGGCUAAUAGUCGCGAG [Fam3.1 aminoacylation ribozyme variant]”, the self-aminoacylation in the data set with biotinyl-Ile-oxazolone came out at 1.68; in the data set on biotinyl-Met-oxazolone it was 1.5; in the data set with biotinyl-Val-oxazolone, 1.37; with biotinyl-Leu-oxazolone it was 1.43; with biotinyl-Trp-oxazolone, 3.96; in the data set with biotinyl-Phe-oxazolone it was 1.05.

In the case of “CUAUUUCAAACAAUCCGUCUG [Fam1A.1 aminoacylation ribozyme variant]”, the self-aminoacylation is 0.826 with biotinyl-Ile-oxazolone; 0.818 with biotinyl-Met-oxazolone; 0.735 in the data set on biotinyl-Val-oxazolone; 0.715 with biotinyl-Leu-oxazolone; 0.595 in the data set with biotinyl-Trp-oxazolone; 0.946 in the data set with biotinyl-Phe-oxazolone.

Regarding “CUACUUUAAACAAUCAGUCUG [Fam1A.1 aminoacylation ribozyme variant]”, the self-aminoacylation in the data set on biotinyl-Ile-oxazolone stood at 0.863; in the data set on biotinyl-Met-oxazolone, 0.798; in the data set with biotinyl-Val-oxazolone, 0.868; in the data set with biotinyl-Leu-oxazolone, 0.764; in the data set on biotinyl-Trp-oxazolone, 0.671; in the data set on biotinyl-Phe-oxazolone, 1.16.

With “CUACUUAAAACAAUCUGUCUG [Fam1A.1 aminoacylation ribozyme variant]”, the self-aminoacylation was 0.77 with biotinyl-Ile-oxazolone; 0.732 with biotinyl-Met-oxazolone; 0.853 in the data set on biotinyl-Val-oxazolone; 0.667 in the data set on biotinyl-Leu-oxazolone; 0.515 with biotinyl-Trp-oxazolone; 0.721 in the data set with biotinyl-Phe-oxazolone.

Consider “CCACACUACAAGCAAUCAGUC [Fam1B.1 aminoacylation ribozyme variant]”, for which the self-aminoacylation with biotinyl-Ile-oxazolone came out at 0.687; in the data set with biotinyl-Met-oxazolone it was 0.394; in the data set on biotinyl-Val-oxazolone, 0.623; in the data set on biotinyl-Leu-oxazolone it was 0.617; with biotinyl-Trp-oxazolone it was 0.422; with biotinyl-Phe-oxazolone, 1.07.

In the case of “AUUCAACUAUGUCAUCGGGUG [Fam2.2 aminoacylation ribozyme variant]”, the self-aminoacylation with biotinyl-Ile-oxazolone turned out to be 3.08; in the data set with biotinyl-Met-oxazolone, 4.78; in the data set on biotinyl-Val-oxazolone, 2.45; in the data set with biotinyl-Leu-oxazolone it was 6.15; in the data set with biotinyl-Trp-oxazolone, 4.57; in the data set on biotinyl-Phe-oxazolone, 33.1.

Consider “AUUCACCGAUGUCAUCGGGUG [Fam2.2 aminoacylation ribozyme variant]”, for which the self-aminoacylation amounted to 5.59 with biotinyl-Ile-oxazolone; 8.67 with biotinyl-Met-oxazolone; 4.63 in the data set on biotinyl-Val-oxazolone; 10.8 in the data set on biotinyl-Leu-oxazolone; 7.35 in the data set with biotinyl-Trp-oxazolone; 62.7 in the data set with biotinyl-Phe-oxazolone.
